Reference: PubChem BioAssay AID1053208 (Peter MacCallum Cancer Centre, 2014)
Shown is one part, drawn at random, of about 17,000 deposited reagents. 788 of them (4.7%) count as active. 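Calls rest on z-score classes alone; an extra cut-off of viability at most 70% of control was not applied to them.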 Further read-outs or replicates are left out here. No sequences are given here.

Aim: 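Find knock-downs that sensitise mouse osteosarcoma cells to doxorubicin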 (primary screen)
System: mouse osteosarcoma cells, early-passage culture from an engineered mouse model of fibroblastic bone tumour
Knock-down reagent: siRNA pool against mouse genes, 40 nM
Time to read-out: about 120 h (48 h before drug, then 72 h with drug)
Conditions: doxorubicin 100 nM for 72 h, roughly 30-40% inhibitory dose
Read-out: 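Luminescent ATP signal taken as viability with or without 100 nM doxorubicin for 72 h; mean of two wells set against non-targeting siRNA and turned into robust z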
Direction: viability z-score with doxorubicin: higher = more viable cells under doxorubicin; viability z-score without drug: higher = more viable cells with knock-down alone
Active means: 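Called active if knock-down leaves viability unchanged without drug (z within -2 to 2) but lowers it with doxorubicin (z at or under -2)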

For Hexb (hexosaminidase B), the values are combined z-score class no change with or without drug; viability z-score with doxorubicin -0.45; viability z-score without drug -0.17; inactive.
Gaa (glucosidase, alpha, acid) showed combined z-score class no change with or without drug; viability z-score with doxorubicin 0.45; viability z-score without drug -0.34; inactive.
Med24 (mediator complex subunit 24) showed combined z-score class no change with or without drug; viability z-score with doxorubicin 0; viability z-score without drug 0.84; inactive.
Silencing of Rbbp8 (retinoblastoma binding protein 8, endonuclease) gave: combined z-score class no change with or without drug; viability z-score with doxorubicin -0.79; viability z-score without drug -0.84; inactive.
Fmo4 (flavin containing monooxygenase 4) gave combined z-score class no change with or without drug; viability z-score with doxorubicin -1.8; viability z-score without drug -0.84; inactive.
Pdcl (phosducin-like) showed combined z-score class no change with or without drug; viability z-score with doxorubicin 0.56; viability z-score without drug 0.84; inactive.
Against Mapre1 (microtubule-associated protein, RP/EB family, member 1), the entry reads combined z-score class no change with or without drug; viability z-score with doxorubicin 0; viability z-score without drug -0.84; inactive.
Depletion of Clec4f (C-type lectin domain family 4, member f) gave: combined z-score class no change with or without drug; viability z-score with doxorubicin -1.8; viability z-score without drug -1.85; inactive.
Cep128 (centrosomal protein 128) showed combined z-score class high cell count without drug only; viability z-score with doxorubicin 1.57; viability z-score without drug 2.87; inactive.
Knock-down of Rarg (retinoic acid receptor, gamma) came out at: combined z-score class no change with or without drug; viability z-score with doxorubicin 1.46; viability z-score without drug 0.17; inactive.
Tmsb15l (thymosin beta 15b like) gave combined z-score class no change with or without drug; viability z-score with doxorubicin -1.12; viability z-score without drug 1.18; inactive.
Against Or14j3 (olfactory receptor family 14 subfamily J member 3), the entry reads combined z-score class no change with or without drug; viability z-score with doxorubicin -1.35; viability z-score without drug 1.18; inactive.
For Nckap1 (NCK-associated protein 1), the values are combined z-score class low cell count without drug only; viability z-score with doxorubicin 0.45; viability z-score without drug -2.02; inactive.
Slc17a9 scored combined z-score class no change with or without drug; viability z-score with doxorubicin 1.12; viability z-score without drug -0.17; inactive.
Depletion of Epn3 (epsin 3) resulted in: combined z-score class no change with or without drug; viability z-score with doxorubicin -0.11; viability z-score without drug 0.51; inactive.
Against Tubgcp4 (tubulin, gamma complex component 4) the deposit lists combined z-score class low cell count with doxorubicin only; viability z-score with doxorubicin -2.14; viability z-score without drug -1.52; active.
Silencing of Abcb4 (ATP-binding cassette, sub-family B member 4) came out at: combined z-score class no change with or without drug; viability z-score with doxorubicin 0.22; viability z-score without drug 1.01; inactive.
Silencing of Or12e1 (olfactory receptor family 12 subfamily E member 1) gave: combined z-score class no change with or without drug; viability z-score with doxorubicin 1.12; viability z-score without drug 0.17; inactive.
Knock-down of Mfng (MFNG O-fucosylpeptide 3-beta-N-acetylglucosaminyltransferase) resulted in: combined z-score class no change with or without drug; viability z-score with doxorubicin 1.12; viability z-score without drug 0.84; inactive.

Single entries from the entries so far:
Abcb4 (ATP-binding cassette, sub-family B member 4), Call = inactive
Fmo4 (flavin containing monooxygenase 4), Call: inactive
